Data reported in paper PMC12858073.
Results are given in words; binding and its absence hold for the method and conditions named. In cells and extracts the contact can be indirect. Some results given as binding are weak or reduced against the parent protein; the word gives no strength.

T1: THOC5 (mouse (endogenous in C2C12)) (UniProt Q8BKT7)
T1 sequence: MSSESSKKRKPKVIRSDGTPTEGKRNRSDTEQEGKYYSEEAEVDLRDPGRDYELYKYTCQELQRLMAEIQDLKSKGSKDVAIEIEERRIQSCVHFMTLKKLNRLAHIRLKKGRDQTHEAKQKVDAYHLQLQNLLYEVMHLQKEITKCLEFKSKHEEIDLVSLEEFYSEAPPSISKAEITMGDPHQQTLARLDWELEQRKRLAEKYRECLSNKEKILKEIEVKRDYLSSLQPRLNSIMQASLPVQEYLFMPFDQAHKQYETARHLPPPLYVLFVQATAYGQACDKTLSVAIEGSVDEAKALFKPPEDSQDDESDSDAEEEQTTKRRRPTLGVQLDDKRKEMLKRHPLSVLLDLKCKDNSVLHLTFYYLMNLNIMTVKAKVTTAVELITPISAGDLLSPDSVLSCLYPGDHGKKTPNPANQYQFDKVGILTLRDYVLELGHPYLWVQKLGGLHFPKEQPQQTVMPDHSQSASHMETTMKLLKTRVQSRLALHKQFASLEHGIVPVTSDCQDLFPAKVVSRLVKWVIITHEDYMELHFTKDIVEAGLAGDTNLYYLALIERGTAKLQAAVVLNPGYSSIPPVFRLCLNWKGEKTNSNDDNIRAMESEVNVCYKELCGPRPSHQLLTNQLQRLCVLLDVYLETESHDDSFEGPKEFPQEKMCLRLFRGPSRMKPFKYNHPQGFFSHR

B1: Ala10 PABPN1-TurboID (protein, UniProt Q8CCS6 1-302)
chain: MAAAAAAAAAAGAAGGRGSGPGRRRHLVPGAGGEAGEGDPGGAGDYGNGLESEELEPGELLPEPEPEEEPPRPRAPPGAPGPGPGSGAPGSQEEEEEPGLVEADPGDGAIEDPELEAIKARVREMEEEAEKLKELQNEVEKQMNMSPPPGNAGPVIMSLEEKMEADARSIYVGNVDYGATAEELEAHFHGCGSVNRVTILCDKFSGHPKGFAYIEFSDKESVRTSLALDESLFRGRQIKVIPKRTNRPGISTTDRGFPRSRYRARTTNYNSSRSRFYSGFNSRPRGRIYRGRARATSWYSPY
B2: Ala17 PABPN1-TurboID (protein, UniProt Q8CCS6 1-302)
chain: MAAAAAAAAAAAAAAAAAGAAGGRGSGPGRRRHLVPGAGGEAGEGDPGGAGDYGNGLESEELEPGELLPEPEPEEEPPRPRAPPGAPGPGPGSGAPGSQEEEEEPGLVEADPGDGAIEDPELEAIKARVREMEEEAEKLKELQNEVEKQMNMSPPPGNAGPVIMSLEEKMEADARSIYVGNVDYGATAEELEAHFHGCGSVNRVTILCDKFSGHPKGFAYIEFSDKESVRTSLALDESLFRGRQIKVIPKRTNRPGISTTDRGFPRSRYRARTTNYNSSRSRFYSGFNSRPRGRIYRGRARATSWYSPY

Biological target: T1, THOC5 (mouse (endogenous in C2C12))
Experiment: co-IP; C2C12 myotubes crosslinked with 2% formaldehyde 10 min; lysate in IP buffer (50 mM Tris-HCl pH 7.4, 150 mM NaCl, 0.5% Igepal); precipitation with anti-THOC5 antibody on protein-A beads; immunoblot with anti-BirA to detect PABPN1-TurboID

Binder | binding
B1 | binds
B2 | binds
